These are yes or no findings as the source states them, for the method shown. In cells and extracts the contact can be indirect. These calls come from enrichment with a bait or labelling near it, and not all partners need be listed.

Sequences of proteins named here, by UniProt entry; tags and fusion partners are left off.
UniProt P49106: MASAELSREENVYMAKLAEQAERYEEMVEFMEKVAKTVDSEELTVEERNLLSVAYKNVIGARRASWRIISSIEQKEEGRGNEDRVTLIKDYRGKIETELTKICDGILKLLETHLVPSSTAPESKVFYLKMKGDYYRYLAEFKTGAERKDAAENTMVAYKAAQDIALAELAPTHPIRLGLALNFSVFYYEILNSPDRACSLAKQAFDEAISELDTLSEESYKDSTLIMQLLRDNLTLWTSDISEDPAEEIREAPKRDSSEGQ

The assay has as its target GF14-6:GFP (maize) (UniProt P49106). As to the kind of experiment: affinity purification with mass spectrometry.

B1: Phosphoenolpyruvate carboxylase 1 (PEP1) (protein, UniProt P04711 1-970)
chain: MASTKAPGPGEKHHSIDAQLRQLVPGKVSEDDKLIEYDALLVDRFLNILQDLHGPSLREFVQECYEVSADYEGKGDTTKLGELGAKLTGLAPADAILVASSILHMLNLANLAEEVQIAHRRRNSKLKKGGFADEGSATTESDIEETLKRLVSEVGKSPEEVFEALKNQTVDLVFTAHPTQSARRSLLQKNARIRNCLTQLNAKDITDDDKQELDEALQREIQAAFRTDEIRRAQPTPQAEMRYGMSYIHETVWKGVPKFLRRVDTALKNIGINERLPYNVSLIRFSSWMGGDRDGNPRVTPEVTRDVCLLARMMAANLYIDQIEELMFELSMWRCNDELRVRAEELHSSSGSKVTKYYIEFWKQIPPNEPYRVILGHVRDKLYNTRERARHLLASGVSEISAESSFTSIEEFLEPLELCYKSLCDCGDKAIADGSLLDLLRQVFTFGLSLVKLDIRQESERHTDVIDAITTHLGIGSYREWPEDKRQEWLLSELRGKRPLLPPDLPQTDEIADVIGAFHVLAELPPDSFGPYIISMATAPSDVLAVELLQRECGVRQPLPVVPLFERLADLQSAPASVERLFSVDWYMDRIKGKQQVMVGYSDSGKDAGRLSAAWQLYRAQEEMAQVAKRYGVKLTLFHGRGGTVGRGGGPTHLAILSQPPDTINGSIRVTVQGEVIEFCFGEEHLCFQTLQRFTAATLEHGMHPPVSPKPEWRKLMDEMAVVATEEYRSVVVKEARFVEYFRSATPETEYGRMNIGSRPAKRRPGGGITTLRAIPWIFSWTQTRFHLPVWLGVGAAFKFAIDKDVRNFQVLKEMYNEWPFFRVTLDLLEMVFAKGDPGIAGLYDELLVAEELKPFGKQLRDKYVETQQLLLQIAGHKDILEGDPFLKQGLVLRNPYITTLNVFQAYTLKRIRDPNFKVTPQPPLSKEFADENKPAGLVKLNPASEYPPGLEDTLILTMKGIAAGMQNTG
B1: the binding entry was “binds”.
